# Measurements from the supplement of paper PMC10849652.
# Protein sequences, listed by entry. Tags and fused reporters are not part of them. Lines headed by an entry give the natural chain unless they say otherwise; changes in a name come on top.
# UniProt O75063: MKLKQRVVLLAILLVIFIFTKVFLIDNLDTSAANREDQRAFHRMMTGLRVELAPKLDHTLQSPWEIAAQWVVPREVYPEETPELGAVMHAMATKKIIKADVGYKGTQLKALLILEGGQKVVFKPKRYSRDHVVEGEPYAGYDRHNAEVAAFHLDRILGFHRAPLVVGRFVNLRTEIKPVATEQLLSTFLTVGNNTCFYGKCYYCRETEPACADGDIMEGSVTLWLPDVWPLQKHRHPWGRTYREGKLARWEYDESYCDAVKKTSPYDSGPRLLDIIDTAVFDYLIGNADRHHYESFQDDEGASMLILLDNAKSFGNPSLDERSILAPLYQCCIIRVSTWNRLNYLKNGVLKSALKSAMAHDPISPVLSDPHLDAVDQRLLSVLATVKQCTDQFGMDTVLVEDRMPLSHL
# UniProt O75477: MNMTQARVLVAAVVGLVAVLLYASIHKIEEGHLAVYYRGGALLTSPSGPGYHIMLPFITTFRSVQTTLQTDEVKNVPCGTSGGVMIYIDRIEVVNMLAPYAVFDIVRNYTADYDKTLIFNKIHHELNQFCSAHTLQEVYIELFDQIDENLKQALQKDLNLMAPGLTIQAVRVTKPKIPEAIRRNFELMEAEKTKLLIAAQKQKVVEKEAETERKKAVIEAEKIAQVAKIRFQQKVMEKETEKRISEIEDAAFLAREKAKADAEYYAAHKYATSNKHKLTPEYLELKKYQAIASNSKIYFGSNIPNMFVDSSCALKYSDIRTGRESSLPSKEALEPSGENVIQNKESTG
# UniProt Q96PL5: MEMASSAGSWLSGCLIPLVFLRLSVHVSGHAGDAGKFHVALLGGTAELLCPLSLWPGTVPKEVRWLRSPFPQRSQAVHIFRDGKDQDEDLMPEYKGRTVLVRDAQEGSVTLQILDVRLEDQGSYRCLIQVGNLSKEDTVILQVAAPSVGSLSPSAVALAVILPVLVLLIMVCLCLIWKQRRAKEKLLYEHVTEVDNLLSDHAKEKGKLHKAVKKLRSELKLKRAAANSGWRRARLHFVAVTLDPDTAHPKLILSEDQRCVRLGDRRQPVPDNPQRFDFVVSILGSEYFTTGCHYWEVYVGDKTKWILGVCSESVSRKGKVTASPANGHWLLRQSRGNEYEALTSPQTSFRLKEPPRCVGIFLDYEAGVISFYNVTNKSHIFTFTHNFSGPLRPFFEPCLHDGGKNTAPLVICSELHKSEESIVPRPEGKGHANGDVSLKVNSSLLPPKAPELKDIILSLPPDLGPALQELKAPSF
# UniProt P13804: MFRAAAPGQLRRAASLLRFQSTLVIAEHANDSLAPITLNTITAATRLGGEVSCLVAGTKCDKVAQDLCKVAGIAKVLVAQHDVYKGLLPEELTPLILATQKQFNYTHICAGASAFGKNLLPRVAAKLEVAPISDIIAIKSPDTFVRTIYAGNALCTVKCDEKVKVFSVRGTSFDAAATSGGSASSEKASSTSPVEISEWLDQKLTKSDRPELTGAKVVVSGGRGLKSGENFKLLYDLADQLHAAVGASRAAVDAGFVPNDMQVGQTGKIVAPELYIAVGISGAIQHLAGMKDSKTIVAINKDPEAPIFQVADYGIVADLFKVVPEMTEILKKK
# UniProt Q9Y3B2, whole entry, looked up: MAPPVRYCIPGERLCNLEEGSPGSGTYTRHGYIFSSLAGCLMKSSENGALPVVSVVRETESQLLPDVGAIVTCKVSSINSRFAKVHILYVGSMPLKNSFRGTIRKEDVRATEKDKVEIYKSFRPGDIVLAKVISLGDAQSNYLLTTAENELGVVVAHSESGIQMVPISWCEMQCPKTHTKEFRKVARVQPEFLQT
# UniProt Q9NUQ9: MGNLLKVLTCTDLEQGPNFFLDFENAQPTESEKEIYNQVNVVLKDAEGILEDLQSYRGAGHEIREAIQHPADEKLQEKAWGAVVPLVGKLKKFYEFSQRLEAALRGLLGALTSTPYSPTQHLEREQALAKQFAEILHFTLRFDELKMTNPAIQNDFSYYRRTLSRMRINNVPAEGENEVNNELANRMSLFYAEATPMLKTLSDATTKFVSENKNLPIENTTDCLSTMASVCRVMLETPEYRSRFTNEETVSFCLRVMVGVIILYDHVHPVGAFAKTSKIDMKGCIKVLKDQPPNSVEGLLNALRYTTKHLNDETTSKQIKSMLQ
# UniProt Q96KR6: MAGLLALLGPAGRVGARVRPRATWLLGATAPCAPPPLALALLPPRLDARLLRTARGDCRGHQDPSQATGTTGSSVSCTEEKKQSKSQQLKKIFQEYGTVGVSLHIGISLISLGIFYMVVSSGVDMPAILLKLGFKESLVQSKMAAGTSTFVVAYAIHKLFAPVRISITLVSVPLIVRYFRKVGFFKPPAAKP
# UniProt Q96DZ1: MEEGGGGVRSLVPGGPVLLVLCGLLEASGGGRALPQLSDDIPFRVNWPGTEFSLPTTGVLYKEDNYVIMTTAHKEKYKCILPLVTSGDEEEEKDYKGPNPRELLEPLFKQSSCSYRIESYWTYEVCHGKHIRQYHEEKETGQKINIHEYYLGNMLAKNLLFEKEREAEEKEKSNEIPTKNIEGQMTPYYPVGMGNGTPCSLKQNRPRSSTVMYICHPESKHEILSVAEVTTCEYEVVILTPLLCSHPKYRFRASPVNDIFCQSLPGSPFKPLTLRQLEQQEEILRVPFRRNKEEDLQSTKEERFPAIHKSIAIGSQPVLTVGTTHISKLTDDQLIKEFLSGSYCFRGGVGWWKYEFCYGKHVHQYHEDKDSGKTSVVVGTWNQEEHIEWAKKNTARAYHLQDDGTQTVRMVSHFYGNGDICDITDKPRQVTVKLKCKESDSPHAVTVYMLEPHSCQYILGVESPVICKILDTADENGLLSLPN
# UniProt Q13868, whole entry, looked up: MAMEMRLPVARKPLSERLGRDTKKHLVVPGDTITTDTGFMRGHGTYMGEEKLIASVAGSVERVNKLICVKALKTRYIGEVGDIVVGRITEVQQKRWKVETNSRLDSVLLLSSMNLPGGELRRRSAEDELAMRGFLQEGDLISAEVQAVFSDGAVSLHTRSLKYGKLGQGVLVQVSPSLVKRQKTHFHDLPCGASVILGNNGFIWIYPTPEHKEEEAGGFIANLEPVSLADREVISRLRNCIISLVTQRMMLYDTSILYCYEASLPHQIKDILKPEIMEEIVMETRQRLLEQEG
# UniProt P98173: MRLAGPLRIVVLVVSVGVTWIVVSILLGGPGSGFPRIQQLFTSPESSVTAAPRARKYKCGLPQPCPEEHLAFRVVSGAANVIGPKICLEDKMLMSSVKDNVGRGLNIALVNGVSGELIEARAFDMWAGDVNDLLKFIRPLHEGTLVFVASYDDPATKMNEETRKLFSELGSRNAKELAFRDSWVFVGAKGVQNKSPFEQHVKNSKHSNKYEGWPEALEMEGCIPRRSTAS
# UniProt Q9H0X4: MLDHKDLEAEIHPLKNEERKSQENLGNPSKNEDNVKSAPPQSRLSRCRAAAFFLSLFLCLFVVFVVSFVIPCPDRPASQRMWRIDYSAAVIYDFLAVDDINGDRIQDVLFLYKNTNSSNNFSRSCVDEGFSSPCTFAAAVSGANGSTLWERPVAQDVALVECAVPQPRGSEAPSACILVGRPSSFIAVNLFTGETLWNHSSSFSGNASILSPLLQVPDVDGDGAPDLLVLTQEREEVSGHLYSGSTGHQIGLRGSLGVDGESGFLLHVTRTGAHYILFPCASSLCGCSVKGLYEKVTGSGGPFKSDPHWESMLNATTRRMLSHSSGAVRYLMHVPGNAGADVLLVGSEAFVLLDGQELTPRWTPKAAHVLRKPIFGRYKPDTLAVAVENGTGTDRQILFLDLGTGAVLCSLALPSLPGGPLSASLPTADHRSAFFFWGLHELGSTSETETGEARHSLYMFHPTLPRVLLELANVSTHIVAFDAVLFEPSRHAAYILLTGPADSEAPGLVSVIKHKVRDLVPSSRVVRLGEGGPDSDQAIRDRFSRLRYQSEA
# UniProt O00471: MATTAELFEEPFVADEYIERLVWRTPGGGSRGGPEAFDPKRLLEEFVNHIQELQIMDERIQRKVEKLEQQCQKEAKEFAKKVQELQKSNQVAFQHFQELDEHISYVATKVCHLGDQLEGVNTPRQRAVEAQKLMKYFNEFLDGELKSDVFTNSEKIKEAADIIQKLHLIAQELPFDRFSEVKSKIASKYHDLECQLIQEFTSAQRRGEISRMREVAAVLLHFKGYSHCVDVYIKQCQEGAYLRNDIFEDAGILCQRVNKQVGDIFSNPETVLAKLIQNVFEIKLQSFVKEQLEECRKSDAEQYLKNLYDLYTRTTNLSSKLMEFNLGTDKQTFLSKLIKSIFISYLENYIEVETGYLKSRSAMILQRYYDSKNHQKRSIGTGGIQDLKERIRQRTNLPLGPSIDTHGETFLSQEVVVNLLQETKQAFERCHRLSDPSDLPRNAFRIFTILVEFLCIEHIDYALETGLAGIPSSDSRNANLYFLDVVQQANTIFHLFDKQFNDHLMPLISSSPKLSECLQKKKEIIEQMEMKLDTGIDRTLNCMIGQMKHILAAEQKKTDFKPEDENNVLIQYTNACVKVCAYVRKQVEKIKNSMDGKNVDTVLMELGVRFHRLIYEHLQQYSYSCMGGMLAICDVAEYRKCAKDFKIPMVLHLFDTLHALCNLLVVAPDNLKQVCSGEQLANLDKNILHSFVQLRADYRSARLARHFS
# UniProt Q9NRY5: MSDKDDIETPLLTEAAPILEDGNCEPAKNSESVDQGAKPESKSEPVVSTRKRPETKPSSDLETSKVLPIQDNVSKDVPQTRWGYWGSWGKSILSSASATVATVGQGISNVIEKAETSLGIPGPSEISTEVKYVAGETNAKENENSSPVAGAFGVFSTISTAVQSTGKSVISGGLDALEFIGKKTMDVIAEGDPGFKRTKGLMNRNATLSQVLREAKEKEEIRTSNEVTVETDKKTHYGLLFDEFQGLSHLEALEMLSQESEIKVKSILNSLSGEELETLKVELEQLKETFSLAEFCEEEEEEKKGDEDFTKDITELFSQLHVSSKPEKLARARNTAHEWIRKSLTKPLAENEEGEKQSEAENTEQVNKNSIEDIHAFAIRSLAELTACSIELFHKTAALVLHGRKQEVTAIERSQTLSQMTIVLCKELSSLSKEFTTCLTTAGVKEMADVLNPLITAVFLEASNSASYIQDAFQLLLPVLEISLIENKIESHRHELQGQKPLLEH
# UniProt Q5BKY9: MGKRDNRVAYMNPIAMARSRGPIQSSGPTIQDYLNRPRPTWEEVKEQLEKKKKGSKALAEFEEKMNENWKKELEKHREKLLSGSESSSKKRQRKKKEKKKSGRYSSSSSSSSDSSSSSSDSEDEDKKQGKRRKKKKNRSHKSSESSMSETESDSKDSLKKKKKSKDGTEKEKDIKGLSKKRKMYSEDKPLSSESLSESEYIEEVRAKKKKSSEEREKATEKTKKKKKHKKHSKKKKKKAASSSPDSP
# UniProt Q9H501: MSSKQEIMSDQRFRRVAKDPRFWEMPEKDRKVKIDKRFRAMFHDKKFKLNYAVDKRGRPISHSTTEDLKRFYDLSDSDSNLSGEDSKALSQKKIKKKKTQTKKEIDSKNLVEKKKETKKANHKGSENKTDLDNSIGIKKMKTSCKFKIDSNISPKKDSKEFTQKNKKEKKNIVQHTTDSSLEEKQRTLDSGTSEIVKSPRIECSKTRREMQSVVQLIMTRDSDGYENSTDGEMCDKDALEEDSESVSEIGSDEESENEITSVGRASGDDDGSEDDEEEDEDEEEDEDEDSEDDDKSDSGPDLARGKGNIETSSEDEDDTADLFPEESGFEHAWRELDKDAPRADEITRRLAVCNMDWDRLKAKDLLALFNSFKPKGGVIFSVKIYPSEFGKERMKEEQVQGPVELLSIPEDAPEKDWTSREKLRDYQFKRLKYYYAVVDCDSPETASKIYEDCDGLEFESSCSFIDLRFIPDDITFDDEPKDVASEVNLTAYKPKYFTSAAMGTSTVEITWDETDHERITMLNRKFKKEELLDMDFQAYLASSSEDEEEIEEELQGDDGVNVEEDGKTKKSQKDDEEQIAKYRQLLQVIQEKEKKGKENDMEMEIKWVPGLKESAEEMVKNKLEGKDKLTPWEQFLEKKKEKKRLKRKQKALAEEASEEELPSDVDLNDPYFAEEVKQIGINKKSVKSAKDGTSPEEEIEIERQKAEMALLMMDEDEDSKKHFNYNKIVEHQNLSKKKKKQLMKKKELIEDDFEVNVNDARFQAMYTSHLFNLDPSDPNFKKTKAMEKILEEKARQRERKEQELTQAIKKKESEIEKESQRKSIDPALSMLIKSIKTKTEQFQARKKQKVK
# Some of the results follow.
# What was measured:
# Experiment in all cases: log2 fold change, soluble protein after heating vs DMSO (PISA); higher = thermal stabilisation; K562 lysate, 10 uM; active = over 0.2 and 3.5 SD of the protein, either way, in both replicates (recomputed)
# [1] = compound: CS(=O)(=O)CCNCc1ccc(-c2ccc3ncnc(Nc4ccc(OCc5cccc(F)c5)c(Cl)c4)c3c2)o1 [lapatinib]
# Outline: (§1)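 Following dounce homogenisation of K562 pellets in PBS pH 7.4 with 1 mM MgCl2, crude extract at 1 mg/mL protein was incubated for 30 min with 10 μM compound. Aliquots were then heated for 3 min over 48°C-58°C and pooled, NP-40 was added to 0.5% at 4°C, and soluble protein was recovered as the supernatant at 21,000xg for 90 min. Channel-sum-equalised TMTpro 16plex LC-MS/MS quantified this protein. Each value, from duplicates, is a log-two fold change in thermal stability relative to solvent controls.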
# [2] = compound: CS(=O)(=O)N1CCN(Cc2cc3nc(-c4cccc5[nH]ncc45)nc(N4CCOCC4)c3s2)CC1 [pictilisib]
# Outline: as §1
# [3] = compound: C[C@@H](Oc1cc(-c2cnn(C3CCNCC3)c2)cnc1N)c1c(Cl)ccc(F)c1Cl [crizotinib]
# Outline: as §1
# [4] = compound: C[C@H](C1=CC=C(C=C1)C(=O)NC2=C3C=CNC3=NC=C2)N
# Outline: as §1
# [5] = compound: C[C@H](Nc1ncnc2nc[nH]c12)c1cc2cccc(Cl)c2c(=O)n1-c1ccccc1 [duvelisib]
# Outline: as §1
# [6] = compound: Cc1cc(Nc2cc(CN3CCOCC3)c3nc(C)c(Cc4ccc(Cl)cc4F)n3n2)n[nH]1 [gandotinib]
# Outline: as §1
# [7] = compound: Cc1cc(Nc2cc(N3CCN(C)CC3)nc(Sc3ccc(NC(=O)C4CC4)cc3)n2)n[nH]1 [tozasertib]
# Outline: as §1
# [8] = compound: Cc1ccc(-n2nc(C(C)(C)C)cc2NC(=O)Nc2ccc(OCCN3CCOCC3)c3ccccc23)cc1 [doramapimod]
# Outline: as §1
# [9] = compound: Cc1ccc(NC(=O)c2ccc(CN3CC[C@H](N(C)C)C3)c(C(F)(F)F)c2)cc1Nc1nccc(-c2cncnc2)n1 [bafetinib]
# Outline: as §1
# [10] = compound: Cc1cccc(CC(=O)N2CCc3c2ccc(-c2cn(C)c4ncnc(N)c24)c3F)n1
# Outline: as §1
# [11] = compound: Cc1cn(-c2cc(NC(=O)c3ccc(C)c(Nc4nccc(-c5cccnc5)n4)c3)cc(C(F)(F)F)c2)cn1 [nilotinib]
# Outline: as §1
# [12] = compound: Cc1nc(Nc2n[nH]c3c2CN(C(=O)N[C@H](CN(C)C)c2ccccc2)C3(C)C)c2sccc2n1
# Outline: as §1
# [13] = compound: Cc1nc(Nc2ncc(C(=O)Nc3c(C)cccc3Cl)s2)cc(N2CCN(CCO)CC2)n1 [dasatinib]
# Outline: as §1
# [14] = compound: Cc1ncc(-c2ccnc(Nc3ccc(S(C)(=O)=O)cc3)n2)n1C(C)C
# Outline: as §1
# [15] = compound: Cn1cc(-c2ccc3c(c2)CCN3C(=O)Cc2cccc(C(F)(F)F)c2)c2c(N)ncnc21
# Outline: as §1
# [16] = compound: Cn1cc(CNCC2CCN(c3ncc(C(=O)NO)cn3)CC2)c2ccccc21 [quisinostat]
# Outline: as §1
# [17] = compound: Cn1cncc1[C@@](N)(c1ccc(Cl)cc1)c1ccc2c(c1)c(-c1cccc(Cl)c1)cc(=O)n2C [tipifarnib]
# Outline: as §1
# [18] = compound: NC(=O)Nc1cc(-c2cccc(F)c2)sc1C(=O)N[C@H]1CCCNC1
# Outline: as §1
# [19] = compound: NC(=O)c1cnc(N[C@@H]2CCCC[C@@H]2N)nc1Nc1cccc(-n2nccn2)c1
# Outline: as §1
# [20] = compound: NC1(c2ccc(-c3nc4ccn5c(=O)[nH]nc5c4cc3-c3ccccc3)cc2)CCC1
# Outline: as §1
Target,log2 fold change [1],log2 fold change [2],log2 fold change [3],log2 fold change [4],log2 fold change [5],log2 fold change [6],log2 fold change [7],log2 fold change [8],log2 fold change [9],log2 fold change [10],log2 fold change [11],log2 fold change [12],log2 fold change [13],log2 fold change [14],log2 fold change [15],log2 fold change [16],log2 fold change [17],log2 fold change [18],log2 fold change [19],log2 fold change [20]
FAM20B (UniProt O75063),inactive: 0.033,inactive: -0.019,inactive: -0.027,inactive: -0.026,inactive: 0.043,inactive: -0.075,inactive: 0.01,inactive: -0.012,inactive: -0.056,inactive: -0.017,inactive: 0.066,inactive: -0.044,inactive: -0.01,inactive: -0.004,inactive: 0.016,inactive: 0.035,inactive: -0.05,inactive: 0.037,inactive: 0.022,inactive: 0.043
ERLIN1 (UniProt O75477),inactive: -0.041,inactive: -0.01,inactive: 0.032,inactive: -0.094,inactive: -0.011,inactive: 0.033,inactive: 0.019,inactive: 0.048,inactive: -0.027,inactive: 0.03,inactive: 0.011,inactive: -0.031,inactive: -0.01,inactive: -0.034,inactive: 0.033,inactive: 0.107,inactive: 0.049,inactive: -0.047,inactive: -0.009,inactive: 0.035
ERMAP (UniProt Q96PL5),inactive: -0.053,inactive: -0.012,inactive: -0.011,inactive: -0.104,inactive: -0.018,inactive: 0.102,inactive: 0.003,inactive: -0.041,inactive: -0.095,inactive: 0.121,inactive: -0.07,inactive: -0.009,inactive: -0.04,inactive: 0.035,inactive: 0.024,inactive: 0.01,inactive: 0.075,inactive: 0.041,inactive: -0.065,inactive: -0.037
ETFA (UniProt P13804),inactive: -0.022,inactive: 0,inactive: -0.006,inactive: -0.023,inactive: -0.023,inactive: -0.014,inactive: 0.001,inactive: 0.022,inactive: -0.004,inactive: 0.014,inactive: -0.014,inactive: -0.011,inactive: -0.158,inactive: -0.003,inactive: 0.014,inactive: 0.002,inactive: 0.008,inactive: -0.015,inactive: 0.009,inactive: 0.005
EXOSC1 (UniProt Q9Y3B2),inactive: 0.019,inactive: -0.023,inactive: -0.015,inactive: 0.165,inactive: -0.064,inactive: -0.028,inactive: -0.019,inactive: -0.054,inactive: -0.032,inactive: -0.011,inactive: 0.175,inactive: 0,inactive: -0.002,inactive: 0.01,inactive: -0.016,inactive: 0.02,inactive: 0.235,inactive: 0.017,inactive: -0.001,inactive: 0.026
FAM49B (UniProt Q9NUQ9),inactive: -0.011,inactive: 0.004,inactive: -0.016,inactive: -0.023,inactive: -0.003,inactive: 0.023,inactive: 0.016,inactive: 0.011,inactive: 0.043,inactive: -0.049,inactive: 0.005,inactive: -0.009,inactive: 0.036,inactive: -0.002,inactive: 0.006,inactive: 0.028,inactive: 0.016,inactive: -0.006,inactive: -0.004,inactive: 0
FAM210B (UniProt Q96KR6),inactive: 0.065,inactive: 0.001,inactive: -0.068,inactive: -0.136,inactive: 0.01,inactive: 0.09,inactive: 0.086,inactive: -0.085,inactive: 0.004,inactive: 0.048,inactive: 0.133,inactive: -0.079,inactive: 0.037,inactive: -0.025,inactive: -0.06,inactive: -0.098,inactive: -0.019,inactive: 0.049,inactive: -0.032,inactive: -0.018
ERLEC1 (UniProt Q96DZ1),inactive: 0.014,inactive: 0.003,inactive: 0.012,inactive: -0.063,inactive: -0.009,inactive: 0.007,inactive: 0.013,inactive: -0.052,inactive: -0.024,inactive: 0.066,inactive: 0.018,inactive: -0.019,inactive: 0.009,inactive: -0.015,inactive: 0.054,inactive: 0.01,inactive: -0.026,inactive: 0.01,inactive: -0.002,inactive: -0.019
EXOSC2 (UniProt Q13868),inactive: -0.016,inactive: -0.034,inactive: -0.007,inactive: -0.076,inactive: 0.041,inactive: 0.055,inactive: -0.028,inactive: 0.02,inactive: -0.051,inactive: 0.014,inactive: 0.028,inactive: -0.025,inactive: 0.027,inactive: -0.008,inactive: -0.01,inactive: 0.002,inactive: 0,inactive: -0.007,inactive: -0.019,inactive: 0.005
FAM3A (UniProt P98173),inactive: -0.047,inactive: -0.023,inactive: 0.042,inactive: -0.028,inactive: -0.019,inactive: 0.011,inactive: 0.039,inactive: 0.039,inactive: 0.002,inactive: 0.063,inactive: 0.062,inactive: 0.009,inactive: 0.042,inactive: -0.028,inactive: 0.013,inactive: 0.048,inactive: -0.053,inactive: -0.055,inactive: 0.017,inactive: 0.011
FAM234A (UniProt Q9H0X4),inactive: -0.108,inactive: -0.023,inactive: 0.023,inactive: -0.063,inactive: 0.007,inactive: 0.039,inactive: -0.021,inactive: -0.041,inactive: -0.02,inactive: 0.1,inactive: -0.001,inactive: -0.065,inactive: -0.07,inactive: -0.049,inactive: 0.036,inactive: -0.009,inactive: 0.064,inactive: -0.029,inactive: 0.033,inactive: -0.007
EXOC5 (UniProt O00471),inactive: -0.012,inactive: 0.017,inactive: -0.067,inactive: 0.055,inactive: -0.027,inactive: -0.202,inactive: 0.025,inactive: 0.027,inactive: -0.033,inactive: 0.003,inactive: 0.008,inactive: -0.025,inactive: -0.063,inactive: -0.003,inactive: 0.047,inactive: -0.044,inactive: 0.006,inactive: 0.014,inactive: 0.01,inactive: 0.002
FAM114A2 (UniProt Q9NRY5),inactive: 0.106,inactive: -0.013,inactive: 0.013,inactive: -0.023,inactive: 0.011,active: 0.449,inactive: -0.108,inactive: -0.011,inactive: -0.121,inactive: 0.196,inactive: 0.152,inactive: 0.053,inactive: -0.028,inactive: 0.031,inactive: 0.002,inactive: 0.02,inactive: -0.231,inactive: 0,inactive: 0.009,inactive: -0.071
FAM133B (UniProt Q5BKY9),inactive: -0.027,inactive: 0.154,inactive: 0.041,inactive: 0.18,inactive: -0.035,inactive: -0.151,inactive: 0.079,inactive: -0.046,inactive: -0.084,inactive: -0.178,inactive: -0.032,inactive: -0.045,inactive: 0.14,inactive: -0.087,inactive: -0.058,inactive: 0.092,inactive: -0.002,inactive: -0.024,inactive: -0.053,inactive: 0.006
ESF1 (UniProt Q9H501),inactive: -0.106,inactive: 0.026,inactive: -0.017,inactive: -0.041,inactive: 0.05,inactive: 0.061,inactive: 0.062,inactive: 0.019,inactive: -0.088,inactive: 0.045,inactive: 0.002,inactive: 0.004,inactive: 0.022,inactive: 0.021,inactive: 0.002,inactive: 0.024,inactive: -0.015,inactive: -0.003,inactive: 0.058,inactive: 0.037
EXOC1 (UniProt Q9NV70),inactive: -0.013,inactive: 0.029,inactive: -0.041,inactive: 0.04,inactive: 0.016,inactive: -0.186,inactive: -0.004,inactive: 0.023,inactive: -0.04,inactive: 0.024,inactive: -0.005,inactive: 0.013,inactive: -0.067,inactive: 0.013,inactive: 0.097,inactive: 0.024,inactive: 0.005,inactive: 0.024,inactive: 0.012,inactive: -0.032
